Data as given in PubChem BioAssay AID1671195 (Yale University, 2021).
This is an unselected part of about 22,000 reagents. About 1,510 of all reagents (6.9%) count as active. 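Active includes knockdowns raising or lowering LDL uptake; positive z-scores mean more uptake, negative mean less.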 Unmarked entries are inactive. The numbers tell different reagents against one gene apart.

Screen: 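Genes whose knockdown alters LDL uptake in liver cancer cells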 (primary screen)
Cell system: human Huh7 hepatoma cells
Knock-down reagent: siRNA pool against human genes, 18 nM
Duration: about 2 to 2.5 days of knockdown, then 8 h LDL uptake
Challenge: DiI-labelled LDL at 30 µg/ml for 8 h, in lipoprotein-deficient serum medium
Measured: 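Fluorescent LDL signal imaged in cells, scaled to the plate median, robust z-score for each replicate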
Direction: robust z-score: higher = more LDL uptake after knockdown
Hit rule: 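Active when two or more replicates show a robust z-score above 2 or below -2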

| gene | reagent | robust z-score, replicate 1 | robust z-score, replicate 2 | robust z-score, replicate 3 |
| --- | --- | --- | --- | --- |
| CAMK1D (calcium/calmodulin dependent protein kinase ID) | 1 | -0.782 | -0.999 | -0.238 |
| VMP1 (vacuole membrane protein 1) | 1 | -0.887 | -1 | -0.287 |
| ANKRD30BL (ankyrin repeat domain 30B like) | 1 | -0.184 | -0.536 | -0.418 |
| LOC441040 (retired record) | 1 | 0.0176 | 0.0202 | -0.145 |
| MRPL52 (mitochondrial ribosomal protein L52) | 1 | -1.04 | -1.1 | -1.82 |
| YRDC (yrdC N6-threonylcarbamoyltransferase domain containing) | 1 | 1.43 (active) | 2.74 | 2.55 |
| MAST1 (microtubule associated serine/threonine kinase 1) | 1 | 0.975 | 0.577 | -0.211 |
| ZBTB45 (zinc finger and BTB domain containing 45) | 1 | 0.819 | 1.38 | 0.1 |
| NABP2 (nucleic acid binding protein 2) | 1 | 0.0191 | -0.472 | 0.0416 |
| SLC67A1 | 1 | -0.827 | -0.302 | -0.278 |
| GCNA (germ cell nuclear acidic peptidase) | 1 | 1.17 | 1.16 | 1.44 |
| ZCCHC24 (zinc finger CCHC-type containing 24) | 1 | 0.769 | 1.02 | 1.38 |
| ITPRIP (inositol 1,4,5-trisphosphate receptor interacting protein) | 1 | 1.92 | 1.34 | 1.09 |
| RIPOR3 (RIPOR family member 3) | 1 | 0.654 | 0.164 | 0.421 |
| RIPOR3 (RIPOR family member 3) | 2 | -0.0262 | 0.759 | 0.362 |
| TINCR (TINCR ubiquitin domain containing) | 1 | 0.245 | 0.744 | 0.911 |
| TSNAXIP1 (translin associated factor X interacting protein 1) | 1 | 2.1 | -0.728 | 1.39 |
| NKX6-1 (NK6 homeobox 1) | 1 | -0.596 | -0.8 | 0.209 |
| THOC6 (THO complex subunit 6) | 1 | 3.34 (active) | 3.46 | 2.49 |
| DERL2 (derlin 2) | 1 | 1.24 | -0.471 | 0.624 |
| APBA2 (amyloid beta precursor protein binding family A member 2) | 1 | 0.429 | 0.382 | 0.607 |
| UNKL (unk like zinc finger) | 1 | 0.406 | 0.0155 | 0.757 |
| UNKL (unk like zinc finger) | 2 | -0.445 | 0.186 | -0.378 |
| LOC123397 (retired record) | 1 | 0.398 | 0.352 | -0.704 |
| PHF7 (PHD finger protein 7) | 1 | 2.58 (active) | 2.66 | 2.08 |
| ALDH2 (aldehyde dehydrogenase 2 family member) | 1 | -0.707 | -0.534 | -0.437 |
| GSTM3 (glutathione S-transferase mu 3) | 1 | 1.86 (active) | 2.33 | 1.95 |
| CDONP2 (CDON pseudogene 2) | 1 | -0.352 | -0.027 | 0.0478 |
| TEX12 (testis expressed 12) | 1 | -0.0173 | -0.0371 | -0.994 |
| LPL (lipoprotein lipase) | 1 | -0.0859 | -0.000347 | 0.201 |
| MPZ (myelin protein zero) | 1 | 1.81 | 1.67 | 2.2 |
| KLHL42 (kelch like family member 42) | 1 | 0.767 | -0.534 | 3 |
| OR14A16 (olfactory receptor family 14 subfamily A member 16) | 1 | -0.359 | -0.079 | -0.171 |
| ZFP14 (ZFP14 zinc finger protein) | 1 | -0.0109 | 0.962 | 0.589 |
| LAMTOR3 (late endosomal/lysosomal adaptor, MAPK and MTOR activator 3) | 1 | 3.71 (active) | 1.57 | 2.21 |
| PRODH (proline dehydrogenase 1) | 1 | -0.431 | 1.05 | 0.0958 |
| RNF126 (ring finger protein 126) | 1 | 0.889 | 1.38 | 0.0225 |

Next part; the last 4 above are carried over.
| gene | reagent | robust z-score, replicate 1 | robust z-score, replicate 2 | robust z-score, replicate 3 |
| --- | --- | --- | --- | --- |
| ZFP14 (ZFP14 zinc finger protein) | 1 | -0.0109 | 0.962 | 0.589 |
| LAMTOR3 (late endosomal/lysosomal adaptor, MAPK and MTOR activator 3) | 1 | 3.71 (active) | 1.57 | 2.21 |
| PRODH (proline dehydrogenase 1) | 1 | -0.431 | 1.05 | 0.0958 |
| RNF126 (ring finger protein 126) | 1 | 0.889 | 1.38 | 0.0225 |
| GAS2 (growth arrest specific 2) | 1 | -1.05 | -1.23 | -1.42 |
| NTRK2 (neurotrophic receptor tyrosine kinase 2) | 1 | -1.19 | -0.562 | -1.66 |
| CNOT7 (CCR4-NOT transcription complex subunit 7) | 1 | -2.7 (active) | -2.28 | -2.63 |
| PTGER2 (prostaglandin E receptor 2) | 1 | -1.02 | -0.632 | -0.869 |
| ATXN3 (ataxin 3) | 1 | -0.169 | -1.53 | -0.399 |
| DPM1 (dolichyl-phosphate mannosyltransferase subunit 1, catalytic) | 1 | 0.568 | 0.302 | 0.519 |
| SUCLG2P2 (SUCLG2 pseudogene 2) | 1 | -0.944 | -0.993 | -0.972 |
| OR7D2 (olfactory receptor family 7 subfamily D member 2) | 1 | -0.661 | -0.599 | 0.0713 |
| FGF14 (fibroblast growth factor 14) | 1 | -0.372 | -0.377 | -0.435 |
| USP37 (ubiquitin specific peptidase 37) | 1 | -0.0133 | -0.0321 | 0.544 |
| MEF2A (myocyte enhancer factor 2A) | 1 | 1.44 | 2.6 | 1.09 |
| GNGT1 (G protein subunit gamma transducin 1) | 1 | -1.01 | -0.997 | -0.298 |
| SMIM3 (small integral membrane protein 3) | 1 | 4.33 (active) | 3.37 | 4.57 |
| GAS2L3 (growth arrest specific 2 like 3) | 1 | 1.03 | 1.31 | 0.987 |
| RAP1A (RAP1A, member of RAS oncogene family) | 1 | -0.692 | -0.766 | 0.499 |
| AKAP8L (A-kinase anchoring protein 8 like) | 1 | -1.64 | -1.62 | -1.86 |
| PUSL1 (pseudouridine synthase like 1) | 1 | 0.194 | 0.622 | -0.291 |
| BICC1 (BicC family RNA binding protein 1) | 1 | -1.05 | -1.32 | -0.871 |
| ZNF608 (zinc finger protein 608) | 1 | -0.832 | -0.257 | -0.454 |
| UGT2B28 (UDP glucuronosyltransferase family 2 member B28) | 1 | -1.47 | -1.4 | -0.744 |
| LINC00574 (long independently transcribed non-coding RNA 574) | 1 | -1.24 | -0.678 | -0.554 |
| HNRNPA1P33 (heterogeneous nuclear ribonucleoprotein A1 pseudogene 33) | 1 | -1.33 | -1.08 | -1.61 |
| PPP1R35 (protein phosphatase 1 regulatory subunit 35) | 1 | 0.194 | 0.0427 | 0.00688 |
| THADA (THADA armadillo repeat containing) | 1 | 2.24 (active) | 2.35 | 1.43 |
| SLC44A1 | 1 | 1.82 | 0.865 | 2.23 |
| LOC338749 (retired record) | 1 | 3.18 (active) | 2.41 | 2.76 |
| AFTPH (aftiphilin) | 1 | -0.321 | -0.319 | -0.0905 |
| LINC02153 (long independently transcribed non-coding RNA 2153) | 1 | -0.856 | -0.914 | -0.915 |
| LY6D (lymphocyte antigen 6 family member D) | 1 | 2.42 | -0.0823 | 1.16 |
| OR6C65 (olfactory receptor family 6 subfamily C member 65) | 1 | -1.25 | -1.79 | -2.14 |
| DDX47 (DEAD-box helicase 47) | 1 | 2.27 | -0.522 | 0.776 |
